## Results from one PubChem assay

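Uptake of anthrax lethal toxin into cultured cells, read by FRET (460/530 nm ratio) and reported from the 460 nm channel; the cell line is not named here.
Each compound was tested as a concentration series from about 0.0005 to 40 µM.
The number is the fitted AC50 of the 460 nm signal alone; lower values mean a more potent effect. A falling signal goes with compounds filed as inhibitors or cytotoxic, a rising one with activators or fluorescent compounds (inferred from the filed classes).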

Values are in nM.
Common to all entries: measured here: 460 nm channel.
This is a side read-out of the assay, for part of the compounds, not drawn at random.
A potency from a partial, single-point or poor curve is only a rough figure.
The first word of each remark tells which way the curve ran; it can be opposite to the aim of the assay.

SMILES,AC50 (nM),curve as filed
COC(=O)N1CCC2(CCCN(Cc3ccccc3OC)C2)CC1,631,"falling, single point"
O=C1Nc2ccccc2C(O)(C(=O)NCc2ccco2)N1c1ccc(Cl)c(Cl)c1 (configuration not stated),15848,"falling, partial curve"
CSc1ccc(C2NC(=O)c3c(sc4c3CCN(C)C4)N2)cc1 (configuration not stated),25118,"rising, single point"
COc1ccc2c(c1O)-c1cccc3c1[C@H](C2)N(C)CC3,25118,"falling, partial curve"
CC[n+]1c(-c2ccccc2)c2cc(N)ccc2c2ccc(N)cc21,1995,"falling, full curve"
CC1(C)CC(=O)C(CC(=O)NC(=O)NCc2ccccc2)=C(O)C1,25118,"rising, single point"
O=C1C2C3CCCC3=C3CCCC3C2C(=O)N1c1cccc(Cl)c1 (configuration not stated),251.2,"falling, partial curve, poor fit"
CSc1nc(C)cc(Nc2ccc(O)c(CN3CCCCC3)c2)n1,794.3,"falling, single point"
N#CC1=C(N)Oc2cc3c(cc2C1c1ccc(Cl)cc1)OCO3 (configuration not stated),3981,"rising, partial curve, poor fit"
C#CCCCCCCCCCCCCCCCC(=O)O,31622,"falling, single point"
COC(C)(C)CCCC(C)C/C=C/C(C)=C/C(=O)OC(C)C (configuration not stated),15848,"falling, full curve, poor fit"
O=C(CCNc1ccc(F)c(Cl)c1)c1ccco1,25118,"falling, single point"
Nc1nncn1C(=O)CCCOc1ccc(Cl)cc1Cl,31622,"rising, single point"
Cc1cc(NC(=O)c2cc3nc4c(c(C(F)(F)F)n3n2)CCc2ccccc2-4)no1,1995,"rising, full curve"
O=C(CCn1nc(-c2ccccc2)ccc1=O)N1CCOCC1,31622,"falling, single point"
COC(=O)[C@@]1(Cc2ccccc2)[C@H]2c3cc(C(=O)N4CCCC4)[nH]c3C[C@H]2CN1C(=O)c1ccccc1,125.9,"rising, full curve, poor fit"
COCCn1c(C(=O)N2CCCC2)cc2c1C[C@H]1CN(C(=O)c3ccccc3)[C@@](Cc3ccc(OC)cc3)(C(=O)OC)[C@@H]21,31622,"rising, single point"
Cc1ccc(S(=O)(=O)N(Cc2ccc(F)cc2)Cc2ccco2)cc1,631,"falling, single point"
COc1ncnc2c1N[C@@](C)(O)c1c(F)c(F)c(F)c(F)c1S2,12.59,"falling, partial curve, poor fit"
OC[C@@H]1O[C@@H](n2cnc3c(N[C@H]4CCC[C@@H]4O)ncnc32)[C@H](O)[C@H]1O,10000,"falling, partial curve"
c1ccc(Sc2nc(N3CCCCC3)nc(N3CCCCC3)n2)nc1,12589,"falling, partial curve"
COc1cccc(Nc2nc(-c3sc(N)nc3C)cs2)c1,3981,"falling, full curve, poor fit"
O=C(COC(=O)C1COc2ccccc2O1)NC(=O)NC1CCCC1 (configuration not stated),25118,"rising, single point"
c1ccc(CSc2ncn(-c3ccccc3)n2)cc1,3162,"falling, partial curve"
CCCCCCCCCCC(C)(C)C(=O)Nc1c(OC)cc(OC)cc1OC,19952,"falling, single point"
Cc1c(Nc2ncnc3nc[nH]c23)c(=O)n(-c2ccccc2)n1C,1995,"falling, partial curve"
CC(=O)Nc1c(O)nc(SCC(=O)Nc2ccc(C(C)=O)cc2)[nH]c1=O,10000,"rising, partial curve"
O=C(CCc1nc(-c2ccccc2F)no1)Nc1ccc(Oc2ccccc2)cc1,794.3,"falling, full curve"
Cc1ccccc1-c1noc(-c2ccccc2C(=O)N2CCCC2)n1,12589,"rising, single point"
COc1ccc(CC(=O)N2CCN(C(=O)c3ccco3)CC2)cc1,3.162,"falling, full curve, poor fit"
CCCN1C(=O)c2cc(C(=O)NCCc3cccc(C)c3)ccc2C1O (configuration not stated),5012,"falling, partial curve"
COc1cc(C(=O)N(Cc2cc3cc(C)ccc3[nH]c2=O)CC2CCCO2)cc(OC)c1OC (configuration not stated),125.9,"rising, full curve"
CCOc1ccc(NC(=O)c2nnn(CC(=O)Nc3ccccc3OCC)c2N)cc1,31622,"falling, single point"
CCOC(=O)N1CCN(C(=O)c2ccc3c(=O)n4c(nc3c2)CCCCC4)CC1,25118,"rising, single point"
COc1ccccc1Oc1nc2c(c(=O)n(Cc3ccccc3F)c(=O)n2C)n1C,5012,"rising, single point"
C=CCNC(=O)C(C#N)c1nc2ccccc2nc1N1CCN(Cc2ccccc2)CC1 (configuration not stated),31.62,"rising, full curve, poor fit"
COC(=O)c1c(N)n(Cc2ccc(OC)cc2)c2nc3ccccc3nc12,12589,"rising, partial curve, poor fit"
COc1ccc2nc(NC(=O)c3cccc(OCc4c(C)noc4C)c3)sc2c1,12589,"falling, partial curve"
CC1(C)CC(C)(O)P(=O)(c2ccccc2)O1 (configuration not stated),12589,"rising, single point"
COc1ccccc1C(c1nnnn1C1CCCC1)N1CCN2CCCC2C1 (configuration not stated),1000,"rising, full curve, poor fit"
COC(=O)N1CCC2(CCCN(c3ccccn3)C2)CC1,10000,"rising, single point"
CC[C@@H](C)[C@H](NC(=O)OC(C)(C)C)c1nnc(S(=O)(=O)Cc2cc(C)ccc2C)o1,15848,"falling, partial curve"
CCOc1ccc(C(=O)N(CN2CCCC2=O)c2ccccc2)cc1,31622,"rising, single point"

4 of the entries, repeated:

- O=C1Nc2ccccc2C(O)(C(=O)NCc2ccco2)N1c1ccc(Cl)c(Cl)c1 (configuration not stated) : AC50 15848 nM (falling, partial curve)
- COC(=O)N1CCC2(CCCN(Cc3ccccc3OC)C2)CC1 : AC50 631 nM (falling, single point)
- COc1cccc(Nc2nc(-c3sc(N)nc3C)cs2)c1 : AC50 3981 nM (falling, full curve, poor fit)
- O=C(COC(=O)C1COc2ccccc2O1)NC(=O)NC1CCCC1 (configuration not stated) : AC50 25118 nM (rising, single point)

Source: PubChem BioAssay AID912 (NCATS, 2007).